Data reported in patent publication US20250115571A1, “OXOPIPERAZINE DERIVATIVES” (Inthera Bioscience AG, priority 2017, published 2025).
The name of at least one read-out is uncertain. Marks after values point to notes of the source that are not given here.

These compounds were tested on CaSki cells (assay: Colony Formation Assay (CFA), 14 days). Conditions: colony formation assay, class by % inhibition at 0.7, 6 or 50 μM.
Assay type: cell-based, human
From the text: Cell culture: CaSki cells were obtained from CLS GmbH, Eppelheim, Germany (cat. 300145) and subcultured in ready-to-use RPMI1640 Media (CLS GmbH cat. 820700) after addition of “Antibiotic Antimycotic Solution” (Sigma-Aldrich, St Louis, USA, cat. A5955) at 1:100 dilution. CaSki cells were expanded and aliquots kept frozen in liquid nitrogen according to manufacturer's instructions. Once thawed, aliquots were passaged every second or third day at a seed density of 20′000 cells/cm^2; and used for a maximum of twenty passages.
Preparation of the cells for CFA: Cell culture flasks were rinsed twice with Ca++/Mg++-free Phosphate-Buffered Saline (DPBS, CLS GmbH cat. 860015) and incubated with Accutase (CLS GmbH cat. 830100) for 15 min at 37° C. Cells were resuspended in a four-fold volume of ready-to use RPMI, centrifuged at 300 g for 10 minutes, the supernatant discarded and the cells resuspended in ready-to-use RPMI1640 by pipetting up and down ten times with a serological pipette. Cell density was determined with a Via-1 Cassette (Chemometec, Allerod, Denmark) on a Nucleocounter NC 3000 (Chemometec). The required amount of cells was first diluted 1:10 in ready-to-use RPMI; cells pipetted five times up-down with a serological pipette; and the 1:10 solution added to the final volume needed for the whole assay setup. Cells were mixed again by pipetting up and down twenty times with a serological pipette. The final cell density was 70 cells/ml.
Seeding: Cells were seeded column-wise in 6-well plates, while triplicates were treated row-wise. Three ml cell suspension solution (210 cells) were added per well.
Treatment: Compound stock solutions were prepared at a concentration of 30 mM in 50% DMSO/50% water; and diluted in the same solution so that the volume added to the wells was of 5 μl and the final DMSO well concentration 0.08%. Untreated cells (negative controls) were incubated in a) medium only; and b) 0.08% DMSO. […] Tests showing less than 75% or more than 95% inhibition were repeated. The plates were swirled gently after addition of the compounds and the cells incubated for 14 days at 37° C. Culture incubation solutions were replaced after one week.
Staining: Colonies were washed twice with ice-cold DPBS and fixed on ice with 1 ml ice-cold 10% methanol solution for 30 min. The methanol solution was removed and colonies incubated with 0.1% Crystal Violet/DBPS for 20 min at room temperature. The wells were rinsed with water at room temperature, let dry and colonies were counted. Compounds e.g., compounds of Table 2 and 3 were classified as follows: […]

| SMILES | Activity (inhibition of colony formation) |
| --- | --- |
| CC(C)C[C@@H]1NCCN([C@@H](CC(C)C)C(=O)N2CCC3(CC2)OCC(CN2CCC(C)CC2)CO3)C1=O [Compound 278, (S)-1-[(S)-3-Methyl-1-({3-[(4-methyl-1-piperidyl)methyl]-1,5-dioxa-9-aza-9-spiro[5.5]un-decyl}car-bonyl)butyl]-3-isobutyl-2-piperazinone] | ++++ (more than 90% inhibition of colony formation at a concentration of 6 μM) |
| CC(C)C[C@@H]1NCCN([C@@H](CC(C)C)C(=O)N2CCC3(CC2)OCC(CN2CCCCC2)CO3)C1=O [Compound 250, (S)-1-[(S)-3-Methyl-1-({3-(piperidinomethyl)-1,5-dioxa-9-aza-9-spiro[5.5]un-decyl}car-bonyl)butyl]-3-isobutyl-2-piperazinone] | ++++ (more than 90% inhibition of colony formation at a concentration of 6 μM) |
| CC(C)C[C@@H]1NCCN([C@@H](CC(C)C)C(=O)N2CCC3(CC2)OCC(CN(C)C)O3)C1=O (stereo partly drawn) [Compound 232, (S)-1-[(S)-1-({2-[(Dimethyl-amino)methyl]-1,4-dioxa-8-aza-8-spiro[4.5]decyl}car-bonyl)-3-methylbutyl]-3-isobutyl-2-piperazinone] | ++++ (more than 90% inhibition of colony formation at a concentration of 6 μM) |
| CC(C)C[C@@H]1NCCN([C@@H](CC(C)C)C(=O)N2CCC3(CC2)OCC(CCN(C)C)O3)C1=O.O=CO.O=CO (stereo partly drawn) [Compound 243, (S)-1-[(S)-1-({2-[2-(Dimethylamino)eth-yl]-1,4-dioxa-8-aza-8-spiro[4.5]decyl}car-bonyl)-3-methylbutyl]-3-isobutyl-2-piperazinone, bis formic acid salt] | ++++ (more than 90% inhibition of colony formation at a concentration of 6 μM) |
| CC(C)C[C@@H]1NCCN([C@@H](CC(C)C)C(=O)N2CCC3(CC2)OCC(CN2CCOCC2)CO3)C1=O [Compound 237, (S)-1-[(S)-3-Methyl-1-({3-(morpholinomethyl)-1,5-dioxa-9-aza-9-spiro[5.5]un-decyl}car-bonyl)butyl]-3-isobutyl-2-piperazinone] | ++++ (more than 90% inhibition of colony formation at a concentration of 6 μM) |
| CC(C)C[C@@H]1NCCN([C@@H](CC(C)C)C(=O)N2CCC3(CC2)OCC(N(C)C)CO3)C1=O [Compound 262, (S)-1-[(S)-1-({3-(Dimethylamino)-1,5-dioxa-9-aza-9-spiro[5.5]un-decyl}carbonyl)-3-methylbutyl]-3-isobutyl-2-piperazinone] | ++++ (more than 90% inhibition of colony formation at a concentration of 6 μM) |

Same assay, conditions: inhibition of colony formation, 14 days, classes at 6, 50 or 0.7 μM

| SMILES | Activity |
| --- | --- |
| CC(C)C[C@H]1C(=O)N([C@@H](CC(C)C)C(=O)N2CCC3(CC2)OCC(CN2CCC4(CC2)CC4)CO3)CCN1C [Compound 312, (S)-1-[(S)-1-[(3-{(6-Aza-6-spiro[2.5]oc-tyl)methyl}-1,5-dioxa-9-aza-9-spiro[5.5]undecyl)car-bonyl]-3-methylbutyl]-3-isobutyl-4-methyl-2-piperazinone] | ++++ (more than 90% inhibition of colony formation at a concentration of 6 μM) |
| CC(C)C[C@@H]1NCCN([C@@H](CC(C)C)C(=O)N2CCC3(CC2)OCC(CN(C)C)CO3)C1=O [Compound 230, (S)-1-[(S)-1-({3-[(Dimethyl-amino)methyl]-1,5-dioxa-9-aza-9-spiro[5.5]un-decyl}carbonyl)-3-methylbutyl]-3-isobutyl-2-piperazinone] | ++++ (more than 90% inhibition of colony formation at a concentration of 6 μM) |
| CC(C)C[C@@H]1NCCN([C@@H](CC(C)C)C(=O)N2CCC3(CC2)OCC(CN2CCC4(CC2)CC4)CO3)C1=O [Compound 310, (S)-1-[(S)-1-[(3-{(6-Aza-6-spiro[2.5]octyl)methyl}-1,5-dioxa-9-aza-9-spiro[5.5]un-decyl)carbonyl]-3-methylbutyl]-3-isobutyl-2-piperazinone] | ++++ (more than 90% inhibition of colony formation at a concentration of 6 μM) |
| CCC1CCN(CC2COC3(CCN(C(=O)[C@H](CC(C)C)N4CCN[C@@H](CC(C)C)C4=O)CC3)OC2)CC1 [Compound 304, (S)-1-[(S)-1-({3-[(4-Ethyl-1-piperidyl)methyl]-1,5-dioxa-9-aza-9-spiro[5.5]un-decyl}carbonyl)-3-methylbutyl]-3-isobutyl-2-piperazinone] | ++++ (more than 90% inhibition of colony formation at a concentration of 6 μM) |
| CC(C)C[C@@H]1NCCN([C@@H](CC(C)C)C(=O)N2CCC3(CC2)OCC(CN2CCC(F)(F)CC2)CO3)C1=O [Compound 311, (S)-1-[(S)-1-({3-[(4,4-Difluoro-1-piperidyl)methyl]-1,5-dioxa-9-aza-9-spiro[5.5]un-decyl}carbonyl)-3-methylbutyl]-3-isobutyl-2-piperazinone] | *+ (greater than 0% but less than or equal to 50% inhibition of colony formation at a concentration of 0.7 μM) |
| CC(C)C[C@@H]1NCCN([C@@H](CC(C)C)C(=O)N2CCC(OC(=O)Cc3ccccc3)CC2)C1=O [Compound 145, 1-{(S)-2-[(S)-3-Isobutyl-2-oxo-1-piperazinyl]-4-methylvaleryl}-4-piperidyl phenylacetate] | +* (greater than 0% but less than or equal to 50% inhibition of colony formation at a concentration of 50 μM) |
| CC(C)C[C@H]1C(=O)N([C@@H](CC(C)C)C(=O)N2CCC3(CC2)OCC(CN2C[C@H](C)C[C@H](C)C2)CO3)CCN1C [Compound 307, (S)-1-[(S)-1-({3-[(3,5-Dimethyl-1-piperidyl)methyl]-1,5-dioxa-9-aza-9-spiro[5.5]un-decyl}carbonyl)-3-methylbutyl]-3-isobutyl-4-methyl-2-piperazinone] | ++++ (more than 90% inhibition of colony formation at a concentration of 6 μM) |
| CC(C)C[C@@H]1NCCN([C@@H](CC(C)C)C(=O)N2CCC3(CC2)OCC(CN2CCCC2)CO3)C1=O [Compound 231, (S)-1-[(S)-3-methyl-1-({3-[(1-pyrrolidinyl)methyl]-l,5-dioxa-9-aza-9-spiro[5.5]un-decyl}carbonyl)butyl]-3-isobutyl-2-piperazinone] | ++++ (more than 90% inhibition of colony formation at a concentration of 6 μM) |
| CC(C)C[C@H]1C(=O)N([C@@H](CC(C)C)C(=O)N2CCC3(CC2)OCC(CN2CC4CC4C2)CO3)CCN1C (stereo partly drawn) [Compound 309, (S)-1-[(S)-1-[(3-{(3-Azabicyclo[3.1.0]hex-3-yl)methyl}-1,5-dioxa-9-aza-9-spiro[5.5]un-decyl)carbonyl]-3-methylbutyl]-3-isobutyl-4-methyl-2-piperazinone] | ++++ (more than 90% inhibition of colony formation at a concentration of 6 μM) |
| CC(C)C[C@@H]1NCCN([C@@H](CC(C)C)C(=O)N2CCC3(CC2)OCC(CN2C[C@H](C)C[C@H](C)C2)CO3)C1=O [Compound 306, (S)-1-[(S)-1-({3-[(3,5-Dimethyl-1-piperidyl)methyl]-1,5-dioxa-9-aza-9-spiro[5.5]un-decyl}carbonyl)-3-methylbutyl]-3-isobutyl-2-piperazinone] | ++++ (more than 90% inhibition of colony formation at a concentration of 6 μM) |
| CC(C)C[C@@H]1NCCN([C@@H](CC(C)C)C(=O)N2CCC3(CC2)OCC(CN2CCC[C@@H](C)C2)CO3)C1=O [Compound 305, (S)-1-[(S)-1-[(3-{[(R)-3-Methyl-1-piperidyl]methyl}-1,5-dioxa-9-aza-9-spiro[5.5]un-decyl)carbonyl]-3-methylbutyl]-3-isobutyl-2-piperazinone] | ++++ (more than 90% inhibition of colony formation at a concentration of 6 μM) |
| CC(C)C[C@@H]1NCCN([C@@H](CC(C)C)C(=O)N2CCC3(CC2)OCC(CN2CC4CC4C2)CO3)C1=O (stereo partly drawn) [Compound 308, (S)-1-[(S)-1-[(3-{(3-Azabicyclo[3.1.0]hex-3-yl)methyl}-1,5-dioxa-9-aza-9-spiro[5.5]un-decyl)carbonyl]-3-methylbutyl]-3-isobutyl-2-piperazinone] | ++++ (more than 90% inhibition of colony formation at a concentration of 6 μM) |
